Assay results from paper PMC1885977.

Molecular target: T1, p34-Arc-CTAP (D. discoideum p34-Arc with a C-terminal TAP tag) (D. discoideum) (UniProt O96623)
T1 sequence: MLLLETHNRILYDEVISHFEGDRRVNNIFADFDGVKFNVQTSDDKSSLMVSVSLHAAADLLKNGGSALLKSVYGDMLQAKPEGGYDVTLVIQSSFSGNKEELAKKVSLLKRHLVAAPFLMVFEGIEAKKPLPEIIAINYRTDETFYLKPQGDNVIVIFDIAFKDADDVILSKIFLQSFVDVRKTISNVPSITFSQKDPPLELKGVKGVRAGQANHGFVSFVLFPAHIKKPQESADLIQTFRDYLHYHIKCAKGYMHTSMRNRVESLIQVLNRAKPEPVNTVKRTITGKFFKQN
Experiment: affinity purification with mass spectrometry; tandem affinity purification from Triton X-100 lysates of 2 x 10^9 AX2 cells: IgG-agarose (150 mM NaCl, 10 mM Tris pH 8.0, 0.1% NP-40, 4 °C), release by TEV protease, calmodulin resin, elution with EGTA; SDS-PAGE, colloidal blue, bands identified by MALDI-TOF/TOF; controls: cells with pDV-CTAP and pDV-CGFP-CTAP

discoidin B (D. discoideum (endogenous in AX2))
binding: no binding

Results are given in words; binding and its absence hold for the method and conditions named. Binding seen in cells or lysates may run through a third protein. A yes stands for co-enrichment or nearness to the bait. Other partners may have been found. A no says only that the protein was not detected with the bait. Tags and fused reporters may be left off the sequences shown.
